Experimental data taken from the supplement of paper PMC4962491.
Several values for one entry are separate records, joined by “and”; a condition that tells them apart may be missing. Equal entries are not always repeated. ± gives the standard deviation of the averaged measurements. This is a selection; strong and weak results do not stand in their true shares. Single values are uncertain here, since repeats match poorly.

The molecules below were run on FaDu (assay: mitochondrial oxygen consumption rate normalised to cell number, Z score over the library; higher = higher oxygen consumption (negative = OCR reduction)). Conditions: treatment time 24 h; assay medium: 5 mM galactose, 5 mM pyruvate, 4 mM glutamine; 2 µM.
Description: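 Primary screen: FaDu cells were incubated 24 h with Pharmakon 1600 / TDI oncology set compounds at 2 or 10 uM. Mitochondrial-specific OCR (basal minus 2 uM antimycin A) was measured on a Seahorse XF96 in assay medium with 5 mM galactose, 5 mM pyruvate and 4 mM glutamine, then corrected for Hoechst cell number and expressed as a Z score […]. Compounds that cut cell number by >66% were excluded. Two repeats.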
`O=C1C2CC3CC1CC(O)(C3)C2` was tested, and the “mitochondrial oxygen consumption rate normalised” value was -0.383 ± 0.2. In the case of `CCN1CCN(c2cc3c(cc2F)c(=O)c(C(=O)O)cn3C2CC2)CC1`, the “mitochondrial oxygen consumption rate normalised” value is reported as -0.815 ± 0.47. With `COc1cc(NS(C)(=O)=O)ccc1Nc1c2ccccc2nc2ccccc12` the “mitochondrial oxygen consumption rate normalised” value was -2.74 ± 1.6. In the case of `Cc1nnc(NS(=O)(=O)c2ccc(N)cc2)s1`, the “mitochondrial oxygen consumption rate normalised” value is reported as -0.67 ± 0.13. For `CC1CC(OC(=O)C(O)c2ccccc2)CC(C)(C)N1C` (configuration not stated), the “mitochondrial oxygen consumption rate normalised” value was 0.169 ± 0.0031. For `C1CCN2C[C@@H]3C[C@@H](CN4CCCC[C@@H]34)[C@H]2C1`, the “mitochondrial oxygen consumption rate normalised” value was -0.935 ± 0.51. For `CC1(C)O[C@@H]2C[C@H]3[C@@H]4CCC5=CC(=O)C=C[C@]5(C)[C@@]4(F)[C@@H](O)C[C@]3(C)[C@]2(C(=O)CO)O1`, the “mitochondrial oxygen consumption rate normalised” value was 1.12 ± 0.075. With `O=C(O)CCCc1ccccc1` the “mitochondrial oxygen consumption rate normalised” value was 0.578 ± 0.24. In the case of `Cc1cnc(NC(=O)C2=C(O)c3ccccc3S(=O)(=O)N2C)s1`, the “mitochondrial oxygen consumption rate normalised” value is reported as -0.36 ± 1. With `O=C(O)COC(=O)Cc1ccccc1Nc1c(Cl)cccc1Cl` the “mitochondrial oxygen consumption rate normalised” value was -0.168 ± 0.88. `[Ca+2].[Cl-].[Cl-]` was tested, and the “mitochondrial oxygen consumption rate normalised” value was 1.07 ± 0.35. With `OC1(c2ccc(Cl)c(C(F)(F)F)c2)CCN(CCCC(c2ccc(F)cc2)c2ccc(F)cc2)CC1` the “mitochondrial oxygen consumption rate normalised” value was 0.316 ± 0.41. In the case of `C[C@@H]1C[C@H]2[C@@H]3CCC4=CC(=O)C=C[C@]4(C)[C@@]3(F)[C@@H](O)C[C@]2(C)[C@@]1(O)C(=O)CO`, the “mitochondrial oxygen consumption rate normalised” value is reported as 0.0776 ± 0.95. In the case of `CCCCNc1ccc(C(=O)OCCOCCOCCOCCOCCOCCOCCOCCOCCOC)cc1`, the “mitochondrial oxygen consumption rate normalised” value is reported as 1.25 ± 0.76. For `CC(C)(Oc1ccc(C(=O)c2ccc(Cl)cc2)cc1)C(=O)O`, the “mitochondrial oxygen consumption rate normalised” value was -0.0736 ± 0.75. `Cc1cc(/C=C/c2ccc3cc(N(C)C)ccc3[n+]2C)c(C)n1-c1ccccc1` was tested, and the “mitochondrial oxygen consumption rate normalised” value was -6.776 ± 0.056. With `CCn1nc(C(=O)O)c(=O)c2cc3c(cc21)OCO3` the “mitochondrial oxygen consumption rate normalised” value was -0.365 ± 0.2. `CC1=Nc2ccc(Cl)cc2S(=O)(=O)N1` was tested, and the “mitochondrial oxygen consumption rate normalised” value was -0.196 ± 0.23. With `CO[C@@]12[C@H](COC(N)=O)C3=C(C(=O)C(C)=C(N)C3=O)N1C[C@@H]1N[C@@H]12` the “mitochondrial oxygen consumption rate normalised” value was -1.67 and -1.32. In the case of `CC(C(=O)O)c1ccc(N2Cc3ccccc3C2=O)cc1` (configuration not stated), the “mitochondrial oxygen consumption rate normalised” value is reported as -0.425 ± 0.52. In the case of `CN(C)CCOc1ccc(/C(=C(/CCCl)c2ccccc2)c2ccccc2)cc1`, the “mitochondrial oxygen consumption rate normalised” value is reported as -0.0358 ± 0.092. For `CCN1CCN(C(=O)N[C@@H](C(=O)N[C@@H]2C(=O)N3C(C(=O)O)=C(CSc4nnnn4C)CS[C@H]23)c2ccc(O)cc2)C(=O)C1=O`, the “mitochondrial oxygen consumption rate normalised” value was 0.627 ± 0.53. For `O=C(NCCO[N+](=O)[O-])c1cccnc1`, the “mitochondrial oxygen consumption rate normalised” value was 0.359 ± 0.018. `Cc1ccc(Cl)c(Nc2ccccc2C(=O)O)c1Cl` was tested, and the “mitochondrial oxygen consumption rate normalised” value was 0.732 ± 0.15. For `C[C@H]1C[C@H]2[C@@H]3CCC4=CC(=O)C=C[C@]4(C)[C@@]3(F)[C@@H](O)C[C@]2(C)[C@@]1(O)C(=O)CO`, the “mitochondrial oxygen consumption rate normalised” value was -0.172 ± 0.22. With `Oc1ccc(OCc2ccccc2)cc1` the “mitochondrial oxygen consumption rate normalised” value was 0.393 ± 0.2. `CN(C)[C@@H]1C(O)=C(C(=O)NCN2CCCC2)C(=O)[C@@]2(O)C(O)=C3C(=O)c4c(O)cccc4[C@@](C)(O)[C@H]3C[C@@H]12` was tested, and the “mitochondrial oxygen consumption rate normalised” value was -0.77 ± 0.28.
